Assay results from PubChem BioAssay AID1671190 (National Center for Advancing Translational Sciences (NCATS), 2021).
Screen size: about 580,000 compounds; about 6,100 (1.1%) were called active. Inconclusive means that the source gave no clear call. Such entries were picked first, then a sample of the others. The call rests on the fitted dose curve; in most records, active means well fitted inhibition curve with a large enough effect; inconclusive means small, poorly fitted or top-dose-only effect, or another doubt; inactive means no such curve, though single readings can be large or run the other way. Where the call is inconclusive, the potency comes from a doubtful curve fit.

Amino acid sequences for entries named in this document (tags omitted). A change or cut given only in a name is not applied to a line headed by its entry.
UniProt P18054: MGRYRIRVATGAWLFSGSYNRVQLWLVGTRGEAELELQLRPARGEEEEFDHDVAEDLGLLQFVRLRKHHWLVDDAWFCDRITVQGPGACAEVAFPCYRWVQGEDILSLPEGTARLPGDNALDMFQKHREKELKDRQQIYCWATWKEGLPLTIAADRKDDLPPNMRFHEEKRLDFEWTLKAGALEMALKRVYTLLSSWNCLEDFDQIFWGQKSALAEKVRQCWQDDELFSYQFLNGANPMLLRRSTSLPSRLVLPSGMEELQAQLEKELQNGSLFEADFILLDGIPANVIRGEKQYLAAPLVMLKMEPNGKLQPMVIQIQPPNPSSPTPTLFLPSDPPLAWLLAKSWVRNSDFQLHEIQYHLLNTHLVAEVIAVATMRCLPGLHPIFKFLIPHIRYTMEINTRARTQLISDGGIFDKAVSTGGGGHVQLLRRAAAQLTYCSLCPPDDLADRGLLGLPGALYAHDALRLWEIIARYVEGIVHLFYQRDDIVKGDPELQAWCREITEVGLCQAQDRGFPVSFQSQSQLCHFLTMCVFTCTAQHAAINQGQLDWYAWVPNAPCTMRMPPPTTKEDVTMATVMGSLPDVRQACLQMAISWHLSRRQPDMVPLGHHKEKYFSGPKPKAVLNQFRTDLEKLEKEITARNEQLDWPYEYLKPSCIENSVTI

Target: Polyunsaturated fatty acid lipoxygenase ALOX12 (Homo sapiens) (UniProt P18054)
Experiment: Primary qHTS assay for inhibitors of human arachidonate 12S-lipoxygenase (ALOX12): Round 2
Settings: purified 12hLO, xylenol orange hydroperoxide absorbance; activity change, negative = inhibition: at 108 µM (top of the series) unless noted
Procedure, shortened: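 Hydroperoxide product was detected by ferrous iron/xylenol orange as the 573 to 405 nm absorbance ratio. Arachidonic acid at 40 uM (final) was turned over for 30 min at room temperature by 150 nM human 12hLO, pH 7.0 Hepes buffer, after 15 min compound preincubation.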
On the % scale 0 is the no-effect control and ±100 the full control effect; potency means the concentration at half of the fitted maximal effect.

Row | Structure (SMILES) | Potency | activity change, negative = inhibition
1 | COc1ccc(C(=O)Nc2ccc(N3CCCCC3)cc2)cc1S(=O)(=O)NC1CC1 | inconclusive: 89.1 µM [inhibitor, partial curve, poor fit] | 
2 | COc1cccc(NC(=O)C(=S)NC2CCCCC2)c1 |  | inactive: -0.149%
3 | Cc1cc(=O)n2[nH]c(SCc3ccccc3)nc2n1 |  | inactive: 0.279%
4 | O=C(O)Cn1ccc2cc(OCc3cccc(-c4ccc(F)cc4F)c3)cnc21 | active: 35.5 µM | 
5 | COc1ccc(-c2cc(C(F)(F)F)n3ncc(C(=O)NCC4CCCO4)c3n2)cc1 (stereo not drawn) |  | inactive: 4.31%
6 | COc1ccc(-c2ccnc(N[C@H]3CO[C@H]4[C@@H]3OC[C@@H]4NC(=O)CCC(=O)O)n2)cc1 | inconclusive: 39.8 µM [inhibitor, partial curve, poor fit] | 
7 | CCCCCOC(=O)CSc1ncnc2sc3c(c12)CCC(C)C3 (stereo not drawn) | inconclusive: 44.7 µM [inhibitor, partial curve, poor fit] | 
8 | S=C(NCC1CCCO1)NC1CCCC1 (stereo not drawn) |  | inactive: -16.7%
9 | O[C@@H](Cc1ccccc1)[C@@H](/C=C/c1ccccc1)NCCc1ccccc1 | inconclusive: 79.4 µM [inhibitor, single point] | 
10 | CC(O)C(NS(=O)(=O)c1ccc(Cl)cc1)C(=O)OCC(=O)N1CCN(c2ccccc2)CC1 (stereo not drawn) | inconclusive: 7.94 µM [inhibitor, full curve, poor fit] | 
11 | CC1CCc2c(sc3ncn(Cc4ccc(C(=O)O)cc4)c(=O)c23)C1 (stereo not drawn) | inconclusive: 7.94 µM [inhibitor, partial curve, poor fit] | 
12 | Nc1c(N(Cc2ccco2)C(=O)c2ccc(Br)cc2)c(=O)[nH]c(=O)n1Cc1ccccc1 | active: 28.2 µM | 
13 | Cc1cc(S(=O)(=O)N(C)CC2CCOC2)ccc1F (stereo not drawn) |  | inactive: 50.8%
14 | CC1=C(/C=C/C(=C/C=C/C(C)=C/C(=O)O)c2ccc(C)cc2)C(C)(C)CCC1 | inconclusive: 28.2 µM [inhibitor, single point] | 
15 | CCOC(=O)c1cc2c(=O)[nH]c(C(Cl)(Cl)Cl)nc2o1 | inconclusive: 89.1 µM [inhibitor, partial curve, poor fit] | 
16 | N#Cc1cccc(CSc2ncnc(N)n2)c1 | inconclusive: 44.7 µM [inhibitor, partial curve, poor fit] | 
17 | CC(C)(C)S(=O)N1Cc2cc(C(=O)NCc3ccc4c(c3)OCO4)nc(-c3cccc(-c4ccncc4)c3)c2[C@H]1CCO (stereo partly drawn) | inconclusive: 15.8 µM [inhibitor, partial curve] | 
18 | CC1=[N+]([O-])C(C)(C)C(C)N(O)C1=O (stereo not drawn) | inconclusive: 3.98 µM [inhibitor, full curve, poor fit] | 

A second format for part of the listing above.
Row,Structure (SMILES),Potency,"activity change, negative = inhibition"
7,CCCCCOC(=O)CSc1ncnc2sc3c(c12)CCC(C)C3 (stereo not drawn),"inconclusive: 44.7 µM [inhibitor, partial curve, poor fit]",
8,S=C(NCC1CCCO1)NC1CCCC1 (stereo not drawn),,inactive: -16.7%
